In patent US20210349096A1:
These are yes or no findings as the source states them, for the method shown. Some results given as binding are weak or reduced against the parent protein; the word gives no strength.

Protein sequences, listed by entry. Tags and fused reporters are not part of them. Residues count along the entry.
UniProt Q8NHJ6, residues 22-448: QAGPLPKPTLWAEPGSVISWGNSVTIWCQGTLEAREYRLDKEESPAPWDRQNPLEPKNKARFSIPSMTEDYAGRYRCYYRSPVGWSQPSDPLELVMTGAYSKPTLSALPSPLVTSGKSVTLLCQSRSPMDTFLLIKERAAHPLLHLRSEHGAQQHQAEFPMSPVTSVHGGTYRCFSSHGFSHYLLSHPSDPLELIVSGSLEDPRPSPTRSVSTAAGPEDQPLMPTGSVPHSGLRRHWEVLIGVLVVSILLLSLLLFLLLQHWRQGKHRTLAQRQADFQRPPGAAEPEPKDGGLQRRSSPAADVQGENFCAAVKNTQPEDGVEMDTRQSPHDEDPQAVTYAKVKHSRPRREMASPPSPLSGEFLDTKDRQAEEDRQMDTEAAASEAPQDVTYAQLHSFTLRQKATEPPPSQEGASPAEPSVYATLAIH
UniProt P02649, residues 19-317: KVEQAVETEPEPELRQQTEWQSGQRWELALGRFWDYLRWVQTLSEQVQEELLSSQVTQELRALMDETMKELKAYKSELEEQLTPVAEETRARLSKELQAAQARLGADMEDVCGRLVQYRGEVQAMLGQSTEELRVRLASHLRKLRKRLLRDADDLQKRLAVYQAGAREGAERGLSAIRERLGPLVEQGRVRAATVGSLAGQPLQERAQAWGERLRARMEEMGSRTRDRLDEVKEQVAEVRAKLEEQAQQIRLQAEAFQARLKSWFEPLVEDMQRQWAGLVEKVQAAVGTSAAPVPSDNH

Legend:
[1] = target: LILRB4 on human monocytic AML THP-1 cells (human) (UniProt Q8NHJ6); experiment: flow cytometry, wild-type against lilrb4-knockout THP-1 cells
[2] = target: LILRB4 on human monocytic AML THP-1 cells (human) (UniProt Q8NHJ6); experiment: flow cytometry, wild-type against lilrb4-knockout THP-1 cells; anti-His tag-APC alone as negative control

binding [1]: binds
binding [2]: binds
Substance: recombinant APOE (from UniProt P02649 19-317) (ligand)
